# Experimental data as given in article PMC12718261, “New Fluorescent Synthetic Retinoids as Potential RAR Agonists with Anticancer, Molecular Docking and ADME Assessments” (Journal of Fluorescence, 2025).
# Tested on: different cancer cell lines
# Experiment: MTT anti-proliferative assay, whole panel statements
# Assay type: cell-based
# Settings: IC50 (WI-38)/IC50 (cancer cell line)
# Method: The antiproliferation and cytotoxicity were assessed using 3-(4,5-dimethylthiazol-2-yl)−2,5-diphenyltetrazolium bromide (MTT, Serva) colorimetric assay. All tested cancer cell lines were seeded at a density of 20,000 cells per well in 96-well plates and allowed to adhere overnight. The attached cells were treated with five serial dilutions (100, 50, 5, 0.5, and 0.1 μM) in triplicate. These concentrations were prepared by diluting the stock solutions with serum-free culture media. The negative control cells were those treated with 0.1% DMSO solvent alone. The treated cells were handled in reduced light and maintained under standard culture growth conditions for 24 h. After the incubation period, MTT powder was prepared as a stock solution (5 mg/mL), and 20 μL of the MTT working reagent (final concentration 0.5 mg/mL) was added to each well. This was followed by incubation with MTT reagent for 4 h in a humidified atmosphere (37 °C, 5% CO2) with subsequent addition of 150 μL of DMSO solubilizing solvent and incubation for 20 min. The absorbance of solubilized violet formazan crystals was measured at 570 nm with a Biotek 800 TS microplate reader. IC50 was calculated as the concentration of retinoid that produced 50% cell growth inhibition. […]
row,Structure (SMILES),SI across cancer cell lines
1,"COC(=O)c1ccc2cc(-c3ccc4c(c3)CCCO4)ccc2c1 [Compound 3b, Methyl 6-(chroman-6-yl)−2-naphthoate]",> 1
2,"COC(=O)c1ccc2cc(-c3ccc4c(c3)CCCN4)ccc2c1 [Compound 3a, Methyl 6-(1,2,3,4-tetrahydroquinolin-6-yl)−2-naphthoate]",> 1

# Tested on: MCF-7
# Experiment: MTT anti-proliferative assay
# Assay type: cell-based
# Settings: IC50 (WI-38)/IC50 (MCF-7)
# Method: (§1) The antiproliferation and cytotoxicity were assessed using 3-(4,5-dimethylthiazol-2-yl)−2,5-diphenyltetrazolium bromide (MTT, Serva) colorimetric assay. All tested cancer cell lines were seeded at a density of 20,000 cells per well in 96-well plates and allowed to adhere overnight. The attached cells were treated with five serial dilutions (100, 50, 5, 0.5, and 0.1 μM) in triplicate. These concentrations were prepared by diluting the stock solutions with serum-free culture media. The negative control cells were those treated with 0.1% DMSO solvent alone. The treated cells were handled in reduced light and maintained under standard culture growth conditions for 24 h. After the incubation period, MTT powder was prepared as a stock solution (5 mg/mL), and 20 μL of the MTT working reagent (final concentration 0.5 mg/mL) was added to each well. This was followed by incubation with MTT reagent for 4 h in a humidified atmosphere (37 °C, 5% CO2) with subsequent addition of 150 μL of DMSO solubilizing solvent and incubation for 20 min. The absorbance of solubilized violet formazan crystals was measured at 570 nm with a Biotek 800 TS microplate reader. IC50 was calculated as the concentration of retinoid that produced 50% cell growth inhibition. For cytotoxicity assessment, WI-38 normal human fibroblast cells were used for the calculation of SI, which is the ratio of IC50 retinoid (WI-38)/IC50 retinoid (cancer cell line).
row,Structure (SMILES),SI (Safety Index)
1,"O=C(O)c1ccc2cc(-c3ccc4c(c3)CCCN4)ccc2c1 [Compound 4a, 6-(1,2,3,4-tetrahydroquinolin-6-yl)−2-naphthoic acid]",0.67
2,"COC(=O)c1ccc2cc(-c3ccc4c(c3)CCCO4)ccc2c1 [Compound 3b, Methyl 6-(chroman-6-yl)−2-naphthoate]",2.39
3,"COC(=O)c1ccc2cc(-c3ccc4c(c3)CCCN4)ccc2c1 [Compound 3a, Methyl 6-(1,2,3,4-tetrahydroquinolin-6-yl)−2-naphthoate]",2.84
4,"CC1=C(/C=C/C(C)=C/C=C/C(C)=C/C(=O)O)C(C)(C)CCC1 [ATRA, all-trans-retinoic acid, reference compound]",9.51
5,"O=C(O)c1ccc2cc(-c3ccc4c(c3)CCCO4)ccc2c1 [Compound 4b, 6-(chroman-6-yl)−2-naphthoic acid]",0.63

# Tested on: PC-3
# Experiment: MTT anti-proliferative assay
# Assay type: cell-based
# Settings: IC50 (WI-38)/IC50 (PC-3)
# Method: as §1
row,Structure (SMILES),SI (Safety Index)
1,"O=C(O)c1ccc2cc(-c3ccc4c(c3)CCCN4)ccc2c1 [Compound 4a, 6-(1,2,3,4-tetrahydroquinolin-6-yl)−2-naphthoic acid]",15.75
2,"COC(=O)c1ccc2cc(-c3ccc4c(c3)CCCO4)ccc2c1 [Compound 3b, Methyl 6-(chroman-6-yl)−2-naphthoate]",6.36
3,"COC(=O)c1ccc2cc(-c3ccc4c(c3)CCCN4)ccc2c1 [Compound 3a, Methyl 6-(1,2,3,4-tetrahydroquinolin-6-yl)−2-naphthoate]",2.08
4,"CC1=C(/C=C/C(C)=C/C=C/C(C)=C/C(=O)O)C(C)(C)CCC1 [ATRA, all-trans-retinoic acid, reference compound]",21.17
5,"O=C(O)c1ccc2cc(-c3ccc4c(c3)CCCO4)ccc2c1 [Compound 4b, 6-(chroman-6-yl)−2-naphthoic acid]",12.35

# Tested on: MDA-MB231
# Experiment: MTT anti-proliferative assay
# Assay type: cell-based
# Settings: IC50 (WI-38)/IC50 (MDA-MB231)
# Method: as §1
row,Structure (SMILES),SI (Safety Index)
1,"O=C(O)c1ccc2cc(-c3ccc4c(c3)CCCN4)ccc2c1 [Compound 4a, 6-(1,2,3,4-tetrahydroquinolin-6-yl)−2-naphthoic acid]",18.06
2,"COC(=O)c1ccc2cc(-c3ccc4c(c3)CCCO4)ccc2c1 [Compound 3b, Methyl 6-(chroman-6-yl)−2-naphthoate]",14.00
3,"COC(=O)c1ccc2cc(-c3ccc4c(c3)CCCN4)ccc2c1 [Compound 3a, Methyl 6-(1,2,3,4-tetrahydroquinolin-6-yl)−2-naphthoate]",16.81
4,"CC1=C(/C=C/C(C)=C/C=C/C(C)=C/C(=O)O)C(C)(C)CCC1 [ATRA, all-trans-retinoic acid, reference compound]",4.52
5,"O=C(O)c1ccc2cc(-c3ccc4c(c3)CCCO4)ccc2c1 [Compound 4b, 6-(chroman-6-yl)−2-naphthoic acid]",14.71

# Tested on: Caco-2
# Experiment: MTT anti-proliferative assay
# Assay type: cell-based
# Settings: IC50 (WI-38)/IC50 (Caco-2)
# Method: as §1
row,Structure (SMILES),SI (Safety Index)
1,"O=C(O)c1ccc2cc(-c3ccc4c(c3)CCCN4)ccc2c1 [Compound 4a, 6-(1,2,3,4-tetrahydroquinolin-6-yl)−2-naphthoic acid]",0.93
2,"COC(=O)c1ccc2cc(-c3ccc4c(c3)CCCO4)ccc2c1 [Compound 3b, Methyl 6-(chroman-6-yl)−2-naphthoate]",2.03
3,"COC(=O)c1ccc2cc(-c3ccc4c(c3)CCCN4)ccc2c1 [Compound 3a, Methyl 6-(1,2,3,4-tetrahydroquinolin-6-yl)−2-naphthoate]",4.09
4,"CC1=C(/C=C/C(C)=C/C=C/C(C)=C/C(=O)O)C(C)(C)CCC1 [ATRA, all-trans-retinoic acid, reference compound]",4.11
5,"O=C(O)c1ccc2cc(-c3ccc4c(c3)CCCO4)ccc2c1 [Compound 4b, 6-(chroman-6-yl)−2-naphthoic acid]",2.24

# Tested on: HepG-2
# Experiment: MTT anti-proliferative assay
# Assay type: cell-based
# Settings: IC50 (WI-38)/IC50 (HepG-2)
# Method: as §1
row,Structure (SMILES),SI (Safety Index)
1,"O=C(O)c1ccc2cc(-c3ccc4c(c3)CCCN4)ccc2c1 [Compound 4a, 6-(1,2,3,4-tetrahydroquinolin-6-yl)−2-naphthoic acid]",0.82
2,"COC(=O)c1ccc2cc(-c3ccc4c(c3)CCCO4)ccc2c1 [Compound 3b, Methyl 6-(chroman-6-yl)−2-naphthoate]",2.44
3,"COC(=O)c1ccc2cc(-c3ccc4c(c3)CCCN4)ccc2c1 [Compound 3a, Methyl 6-(1,2,3,4-tetrahydroquinolin-6-yl)−2-naphthoate]",6.16
4,"CC1=C(/C=C/C(C)=C/C=C/C(C)=C/C(=O)O)C(C)(C)CCC1 [ATRA, all-trans-retinoic acid, reference compound]",2.92
5,"O=C(O)c1ccc2cc(-c3ccc4c(c3)CCCO4)ccc2c1 [Compound 4b, 6-(chroman-6-yl)−2-naphthoic acid]",0.56

# Tested on: HCT-116
# Experiment: MTT anti-proliferative assay
# Assay type: cell-based
# Settings: IC50 (WI-38)/IC50 (HCT-116)
# Method: as §1
row,Structure (SMILES),SI (Safety Index)
1,"O=C(O)c1ccc2cc(-c3ccc4c(c3)CCCN4)ccc2c1 [Compound 4a, 6-(1,2,3,4-tetrahydroquinolin-6-yl)−2-naphthoic acid]",0.33
2,"COC(=O)c1ccc2cc(-c3ccc4c(c3)CCCO4)ccc2c1 [Compound 3b, Methyl 6-(chroman-6-yl)−2-naphthoate]",0.55
3,"COC(=O)c1ccc2cc(-c3ccc4c(c3)CCCN4)ccc2c1 [Compound 3a, Methyl 6-(1,2,3,4-tetrahydroquinolin-6-yl)−2-naphthoate]",3.86
4,"CC1=C(/C=C/C(C)=C/C=C/C(C)=C/C(=O)O)C(C)(C)CCC1 [ATRA, all-trans-retinoic acid, reference compound]",1.21
5,"O=C(O)c1ccc2cc(-c3ccc4c(c3)CCCO4)ccc2c1 [Compound 4b, 6-(chroman-6-yl)−2-naphthoic acid]",0.91
